The source of these data is ChEMBL document CHEMBL1275285, “Synthesis, antimicrobial and anti-inflammatory activities of novel 5-(1-adamantyl)-1,3,4-thiadiazole derivatives” (2010).

Usually MIC stands for the lowest concentration that inhibits growth of the organism.

Converted amounts (≈) assume the structure as drawn.

This experiment deals with Staphylococcus aureus. In words: Antimicrobial activity against Staphylococcus aureus IFO 3060 after 24 hrs. Format: functional. As to conditions: IFO 3060, 24 h. The essentials: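 MIC by two-fold serial dilution in wells, inoculated with microbial suspensions at 10^6 CFU/mL. Incubation was at 36 °C for 24 h (bacteria) or 48 h (C. albicans). MIC was the lowest concentration fully inhibiting visible growth, read by unaided eye.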

In the case of `CC1(C)S[C@@H]2[C@H](NC(=O)[C@H](N)c3ccccc3)C(=O)N2[C@H]1C(=O)O` [AMPICILLIN], it took 2 µg/mL (≈ 5.72 µM) to inhibit growth (MIC).
